Source: the supplement of paper PMC10849652
Some of the results follow.

Sequences of proteins named here, by UniProt entry; tags and fusion partners are left off. A change or cut given only in a name is not applied to a line headed by its entry.
UniProt Q96K31: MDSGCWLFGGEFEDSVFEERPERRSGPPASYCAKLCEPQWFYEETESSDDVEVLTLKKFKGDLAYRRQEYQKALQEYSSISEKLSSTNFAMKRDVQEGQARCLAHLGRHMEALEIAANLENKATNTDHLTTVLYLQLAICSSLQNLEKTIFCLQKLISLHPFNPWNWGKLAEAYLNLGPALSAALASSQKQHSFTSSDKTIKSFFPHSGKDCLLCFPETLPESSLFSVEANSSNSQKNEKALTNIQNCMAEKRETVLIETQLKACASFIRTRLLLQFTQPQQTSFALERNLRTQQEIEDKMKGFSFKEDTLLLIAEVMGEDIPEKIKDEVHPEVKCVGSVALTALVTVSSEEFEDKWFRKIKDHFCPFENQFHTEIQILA
UniProt Q13555: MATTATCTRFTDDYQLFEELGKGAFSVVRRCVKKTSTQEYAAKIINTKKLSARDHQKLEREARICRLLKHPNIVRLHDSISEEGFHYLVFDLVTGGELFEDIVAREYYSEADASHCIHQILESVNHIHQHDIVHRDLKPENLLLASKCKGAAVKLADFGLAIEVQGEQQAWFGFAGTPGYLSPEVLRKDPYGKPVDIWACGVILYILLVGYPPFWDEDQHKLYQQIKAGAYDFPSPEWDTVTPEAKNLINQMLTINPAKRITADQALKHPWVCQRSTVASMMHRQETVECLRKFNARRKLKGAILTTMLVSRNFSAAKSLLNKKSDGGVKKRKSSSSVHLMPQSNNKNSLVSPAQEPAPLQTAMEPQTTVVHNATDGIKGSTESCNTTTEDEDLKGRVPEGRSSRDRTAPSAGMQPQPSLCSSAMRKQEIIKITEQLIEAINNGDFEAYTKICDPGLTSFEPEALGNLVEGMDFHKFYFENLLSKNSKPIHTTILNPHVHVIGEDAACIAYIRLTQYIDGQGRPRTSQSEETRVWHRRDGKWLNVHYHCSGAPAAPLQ
UniProt Q2NKX9: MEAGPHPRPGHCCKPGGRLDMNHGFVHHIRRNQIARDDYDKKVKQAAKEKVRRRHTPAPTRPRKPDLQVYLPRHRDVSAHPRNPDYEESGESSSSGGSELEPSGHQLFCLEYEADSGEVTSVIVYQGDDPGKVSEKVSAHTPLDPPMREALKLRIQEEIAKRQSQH
UniProt Q8NDD1: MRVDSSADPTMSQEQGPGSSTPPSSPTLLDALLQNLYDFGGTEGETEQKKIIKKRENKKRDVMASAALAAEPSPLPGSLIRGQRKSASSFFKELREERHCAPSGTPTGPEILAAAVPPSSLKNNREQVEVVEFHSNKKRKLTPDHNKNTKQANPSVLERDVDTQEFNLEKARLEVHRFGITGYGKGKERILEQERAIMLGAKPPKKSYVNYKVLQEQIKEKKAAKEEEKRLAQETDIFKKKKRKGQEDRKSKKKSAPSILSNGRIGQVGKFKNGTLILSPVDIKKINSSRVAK
UniProt Q13137: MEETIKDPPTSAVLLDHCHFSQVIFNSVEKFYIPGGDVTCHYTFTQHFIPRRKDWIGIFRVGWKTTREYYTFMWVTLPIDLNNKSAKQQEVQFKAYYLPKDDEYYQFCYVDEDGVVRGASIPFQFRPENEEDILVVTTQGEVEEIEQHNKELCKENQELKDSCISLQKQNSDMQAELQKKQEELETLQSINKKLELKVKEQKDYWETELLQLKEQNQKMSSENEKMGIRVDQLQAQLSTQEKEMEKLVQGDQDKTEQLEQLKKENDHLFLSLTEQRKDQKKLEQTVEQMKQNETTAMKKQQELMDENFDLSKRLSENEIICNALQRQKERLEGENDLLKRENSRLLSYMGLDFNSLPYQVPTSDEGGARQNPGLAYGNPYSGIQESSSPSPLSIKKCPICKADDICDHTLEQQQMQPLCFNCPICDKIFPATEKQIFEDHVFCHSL
UniProt Q13901: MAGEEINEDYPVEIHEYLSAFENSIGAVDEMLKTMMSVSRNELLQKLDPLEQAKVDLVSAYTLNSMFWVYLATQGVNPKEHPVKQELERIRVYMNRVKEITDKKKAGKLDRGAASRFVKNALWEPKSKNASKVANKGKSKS
UniProt P00915: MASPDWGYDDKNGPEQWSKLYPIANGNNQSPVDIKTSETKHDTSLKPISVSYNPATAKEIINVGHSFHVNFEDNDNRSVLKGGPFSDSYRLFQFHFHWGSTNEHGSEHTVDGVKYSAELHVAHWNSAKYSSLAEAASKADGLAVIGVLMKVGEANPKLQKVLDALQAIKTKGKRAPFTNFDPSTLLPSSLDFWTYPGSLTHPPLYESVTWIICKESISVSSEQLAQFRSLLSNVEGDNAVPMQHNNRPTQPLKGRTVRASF
UniProt A6NDU8: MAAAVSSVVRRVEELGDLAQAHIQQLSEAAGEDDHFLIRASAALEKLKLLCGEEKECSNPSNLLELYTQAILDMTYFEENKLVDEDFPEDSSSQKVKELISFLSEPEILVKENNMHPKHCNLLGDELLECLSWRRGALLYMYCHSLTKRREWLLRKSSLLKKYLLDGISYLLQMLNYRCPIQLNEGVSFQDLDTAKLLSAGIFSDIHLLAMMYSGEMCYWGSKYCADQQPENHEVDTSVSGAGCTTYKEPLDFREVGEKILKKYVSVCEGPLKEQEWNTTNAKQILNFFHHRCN
UniProt Q9H425: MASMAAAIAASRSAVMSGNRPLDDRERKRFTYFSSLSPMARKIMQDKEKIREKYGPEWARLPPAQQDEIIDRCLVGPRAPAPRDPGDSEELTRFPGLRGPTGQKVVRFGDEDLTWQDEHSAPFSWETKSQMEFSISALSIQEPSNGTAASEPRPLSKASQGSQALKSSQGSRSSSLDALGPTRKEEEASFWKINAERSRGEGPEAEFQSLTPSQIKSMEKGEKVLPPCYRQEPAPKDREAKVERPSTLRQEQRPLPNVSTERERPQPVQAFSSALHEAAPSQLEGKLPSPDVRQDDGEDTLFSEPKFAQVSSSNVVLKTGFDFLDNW
UniProt Q86Y37: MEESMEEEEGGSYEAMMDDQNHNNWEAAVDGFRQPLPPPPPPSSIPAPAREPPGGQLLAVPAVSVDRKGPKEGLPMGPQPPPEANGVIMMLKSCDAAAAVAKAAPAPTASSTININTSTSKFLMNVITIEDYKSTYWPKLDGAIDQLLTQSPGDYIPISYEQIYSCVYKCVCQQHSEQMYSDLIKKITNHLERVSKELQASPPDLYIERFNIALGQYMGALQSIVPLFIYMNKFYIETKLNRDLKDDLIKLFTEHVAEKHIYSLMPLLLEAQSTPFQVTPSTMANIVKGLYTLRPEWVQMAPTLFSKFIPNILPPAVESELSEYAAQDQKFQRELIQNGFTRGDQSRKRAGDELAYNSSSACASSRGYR
UniProt Q96NL8: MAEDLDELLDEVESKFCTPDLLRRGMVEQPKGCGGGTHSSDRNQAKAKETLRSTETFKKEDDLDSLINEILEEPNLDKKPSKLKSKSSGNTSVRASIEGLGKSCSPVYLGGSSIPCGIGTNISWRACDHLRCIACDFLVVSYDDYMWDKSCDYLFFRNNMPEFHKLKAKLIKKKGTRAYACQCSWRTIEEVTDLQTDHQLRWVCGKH
UniProt Q9BUW7: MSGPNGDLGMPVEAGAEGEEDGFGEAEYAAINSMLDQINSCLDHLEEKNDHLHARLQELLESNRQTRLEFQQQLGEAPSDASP

Experiments:
Experiment in all cases: log2 fold change, soluble protein after heating vs DMSO (PISA); higher = thermal stabilisation; K562 lysate, 10 uM; active = over 0.2 and 3.5 SD of the protein, either way, in both replicates (recomputed)
alvocidib = compound: CN1CC[C@H](c2c(O)cc(O)c3c(=O)cc(-c4ccccc4Cl)oc23)[C@H](O)C1 [alvocidib]
In short: (§1)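 Quantification was by TMTpro 16plex LC-MS/MS with equalised channel sums, applied to the supernatant after 21,000xg for 90 min. Samples were crude K562 extract at 1 mg/mL protein in PBS pH 7.4 with 1 mM MgCl2, treated with 10 μM compound for 30 min, heated for 3 min across 48°C-58°C, pooled and brought to 0.5% NP-40 at 4°C. Values are log-two fold changes in thermal stability relative to solvent controls, from duplicates.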

Tubastatin A = compound: CN1CCc2c(c3ccccc3n2Cc2ccc(C(=O)NO)cc2)C1 [Tubastatin A]
In short: as §1

[1] = compound: CNC(=O)C1=CC=CC=C1NC2=NC(=NC=C2Cl)NC3=C(C=C(C=C3)N4CCOCC4)OC
In short: as §1

defactinib = compound: CNC(=O)c1ccc(Nc2ncc(C(F)(F)F)c(NCc3nccnc3N(C)S(C)(=O)=O)n2)cc1 [defactinib]
In short: as §1

[2] = compound: CNc1nc(-c2ccc3c(N)n[nH]c3c2)cc(N2C[C@@H](C(=O)NC3CCCCC3)CC[C@H]2C)n1
In short: as §1

encorafenib = compound: COC(=O)N[C@@H](C)CNc1nccc(-c2cn(C(C)C)nc2-c2cc(Cl)cc(NS(C)(=O)=O)c2F)n1 [encorafenib]
In short: as §1

[3] = compound: COC(=O)[C@H](CCSC)NC(=O)C1=C(C=C(C=C1)NC[C@H](CS)N)C2=CC=CC=C2
In short: as §1

alisertib = compound: COc1cc(Nc2ncc3c(n2)-c2ccc(Cl)cc2C(c2c(F)cccc2OC)=NC3)ccc1C(=O)O [alisertib]
In short: as §1

[4] = compound: COc1cc2nc(-c3cc(F)ccc3O)nc(N[C@@H]3CNC[C@H]3C(C)(C)O)c2cc1OC
In short: as §1

gefitinib = compound: COc1cc2ncnc(Nc3ccc(F)c(Cl)c3)c2cc1OCCCN1CCOCC1 [gefitinib]
In short: as §1

lapatinib = compound: CS(=O)(=O)CCNCc1ccc(-c2ccc3ncnc(Nc4ccc(OCc5cccc(F)c5)c(Cl)c4)c3c2)o1 [lapatinib]
In short: as §1

pictilisib = compound: CS(=O)(=O)N1CCN(Cc2cc3nc(-c4cccc5[nH]ncc45)nc(N4CCOCC4)c3s2)CC1 [pictilisib]
In short: as §1

crizotinib = compound: C[C@@H](Oc1cc(-c2cnn(C3CCNCC3)c2)cnc1N)c1c(Cl)ccc(F)c1Cl [crizotinib]
In short: as §1

[5] = compound: C[C@H](C1=CC=C(C=C1)C(=O)NC2=C3C=CNC3=NC=C2)N
In short: as §1

duvelisib = compound: C[C@H](Nc1ncnc2nc[nH]c12)c1cc2cccc(Cl)c2c(=O)n1-c1ccccc1 [duvelisib]
In short: as §1

gandotinib = compound: Cc1cc(Nc2cc(CN3CCOCC3)c3nc(C)c(Cc4ccc(Cl)cc4F)n3n2)n[nH]1 [gandotinib]
In short: as §1

tozasertib = compound: Cc1cc(Nc2cc(N3CCN(C)CC3)nc(Sc3ccc(NC(=O)C4CC4)cc3)n2)n[nH]1 [tozasertib]
In short: as §1

doramapimod = compound: Cc1ccc(-n2nc(C(C)(C)C)cc2NC(=O)Nc2ccc(OCCN3CCOCC3)c3ccccc23)cc1 [doramapimod]
In short: as §1

bafetinib = compound: Cc1ccc(NC(=O)c2ccc(CN3CC[C@H](N(C)C)C3)c(C(F)(F)F)c2)cc1Nc1nccc(-c2cncnc2)n1 [bafetinib]
In short: as §1

[6] = compound: Cc1cccc(CC(=O)N2CCc3c2ccc(-c2cn(C)c4ncnc(N)c24)c3F)n1
In short: as §1

Target | log2 fold change (alvocidib) | log2 fold change (Tubastatin A) | log2 fold change [1] | log2 fold change (defactinib) | log2 fold change [2] | log2 fold change (encorafenib) | log2 fold change [3] | log2 fold change (alisertib) | log2 fold change [4] | log2 fold change (gefitinib) | log2 fold change (lapatinib) | log2 fold change (pictilisib) | log2 fold change (crizotinib) | log2 fold change [5] | log2 fold change (duvelisib) | log2 fold change (gandotinib) | log2 fold change (tozasertib) | log2 fold change (doramapimod) | log2 fold change (bafetinib) | log2 fold change [6]
C8orf76 (UniProt Q96K31) | inactive: -0.021 | inactive: 0.016 | inactive: 0.029 | inactive: -0.002 | inactive: 0.036 | inactive: 0.079 | inactive: 0.008 | inactive: -0.021 | inactive: 0.003 | inactive: -0.047 | inactive: 0 | inactive: 0.063 | inactive: -0.002 | inactive: 0.017 | inactive: 0.046 | inactive: 0.015 | inactive: -0.021 | inactive: 0.021 | inactive: 0.04 | inactive: -0.005
CAMK2G isoform 8 (UniProt Q13555) | active: 0.334 | inactive: -0.098 | inactive: 0.223 | inactive: 0.006 | inactive: 0.034 | inactive: -0.199 | inactive: -0.007 | inactive: -0.013 | inactive: 0.144 | inactive: -0.013 | inactive: -0.013 | inactive: -0.008 | inactive: -0.177 | inactive: -0.053 | inactive: -0.083 | inactive: 0.085 | inactive: -0.037 | inactive: -0.049 | inactive: 0.001 | inactive: -0.07
C2orf68 (UniProt Q2NKX9) | inactive: 0.022 | inactive: -0.044 | inactive: 0.006 | inactive: 0.027 | inactive: -0.02 | inactive: 0.039 | inactive: -0.059 | inactive: -0.082 | inactive: 0.014 | inactive: 0.022 | inactive: -0.023 | inactive: 0.017 | inactive: 0.045 | inactive: -0.105 | inactive: -0.053 | inactive: 0.092 | inactive: 0.061 | inactive: 0.147 | inactive: -0.073 | inactive: -0.087
C1orf131 isoform 5 (UniProt Q8NDD1) | inactive: -0.118 | inactive: -0.036 | inactive: 0.03 | inactive: 0.013 | inactive: 0.148 | inactive: 0.127 | inactive: 0.02 | inactive: 0.148 | inactive: -0.038 | inactive: 0.111 | inactive: 0.065 | – | inactive: -0.006 | inactive: -0.16 | inactive: 0.028 | inactive: 0.076 | inactive: 0.03 | inactive: -0.008 | – | inactive: 0.177
CALCOCO2 isoform 4 (UniProt Q13137) | inactive: 0.002 | inactive: -0.002 | inactive: 0.014 | inactive: -0.044 | inactive: -0.007 | inactive: 0.014 | inactive: -0.067 | inactive: -0.009 | inactive: -0.003 | inactive: -0.013 | inactive: -0.007 | inactive: -0.015 | inactive: 0.009 | inactive: -0.066 | inactive: 0.016 | inactive: 0.034 | inactive: 0.019 | inactive: -0.005 | inactive: 0.009 | inactive: 0.035
C1D (UniProt Q13901) | inactive: 0.028 | inactive: -0.04 | inactive: -0.032 | inactive: 0.023 | inactive: 0.029 | inactive: -0.043 | inactive: -0.036 | inactive: -0.051 | inactive: 0.01 | inactive: -0.021 | inactive: -0.063 | inactive: 0.039 | inactive: -0.092 | inactive: 0.028 | inactive: -0.008 | inactive: -0.012 | inactive: -0.037 | inactive: -0.029 | inactive: 0.016 | inactive: -0.032
CA1 (UniProt P00915) | inactive: -0.028 | inactive: 0.039 | inactive: -0.033 | inactive: -0.005 | inactive: 0.02 | inactive: -0.032 | inactive: -0.042 | inactive: -0.036 | inactive: 0.013 | inactive: -0.011 | inactive: -0.015 | inactive: -0.005 | inactive: 0.001 | inactive: -0.102 | inactive: 0.027 | inactive: 0.04 | inactive: 0.008 | inactive: 0.005 | inactive: 0.011 | inactive: 0.04
C5orf51 (UniProt A6NDU8) | inactive: 0.075 | inactive: -0.123 | inactive: -0.01 | inactive: -0.045 | inactive: -0.043 | inactive: -0.006 | inactive: 0.144 | inactive: 0.023 | inactive: 0.038 | inactive: 0.056 | inactive: 0.018 | inactive: -0.003 | inactive: -0.024 | inactive: 0.039 | inactive: -0.023 | inactive: -0.143 | inactive: -0.037 | inactive: -0.027 | inactive: -0.031 | inactive: -0.037
C1orf198 (UniProt Q9H425) | inactive: -0.016 | inactive: 0.002 | inactive: 0.097 | inactive: -0.054 | inactive: -0.05 | inactive: 0.025 | inactive: -0.148 | inactive: 0.183 | inactive: 0.021 | inactive: 0.147 | inactive: 0.034 | inactive: 0.005 | inactive: -0.002 | inactive: -0.098 | inactive: -0.03 | inactive: 0.138 | inactive: -0.021 | inactive: 0.083 | inactive: -0.048 | inactive: 0.046
CACUL1 (UniProt Q86Y37) | inactive: 0.022 | inactive: -0.029 | inactive: -0.027 | inactive: 0.027 | inactive: -0.04 | inactive: -0.02 | inactive: -0.042 | – | inactive: 0.212 | – | inactive: -0.26 | – | inactive: 0.037 | inactive: 0.061 | inactive: 0.044 | inactive: -0.151 | inactive: 0.094 | inactive: 0.029 | – | inactive: 0.08
C8orf37 (UniProt Q96NL8) | inactive: -0.146 | inactive: 0.022 | inactive: -0.035 | inactive: 0.281 | inactive: -0.099 | inactive: 0.018 | inactive: -0.011 | – | inactive: 0.162 | – | inactive: -0.095 | inactive: 0.006 | inactive: 0.043 | active: -0.559 | inactive: 0.046 | inactive: -0.06 | inactive: 0.006 | inactive: 0.043 | inactive: 0.09 | inactive: 0.238
C11orf98 (UniProt E9PRG8) | inactive: 0.003 | inactive: 0.064 | inactive: -0.003 | inactive: -0.023 | inactive: 0.091 | inactive: 0.036 | inactive: -0.042 | inactive: -0.013 | inactive: 0.014 | inactive: -0.004 | inactive: -0.039 | inactive: 0.018 | inactive: 0.01 | inactive: -0.017 | inactive: 0.012 | inactive: -0.017 | inactive: 0.041 | inactive: -0.005 | inactive: 0.013 | inactive: 0.021
CAPZA1 (UniProt P52907) | inactive: 0.021 | inactive: 0.047 | inactive: 0.024 | inactive: 0.003 | inactive: 0.033 | inactive: 0.006 | inactive: -0.001 | inactive: 0.01 | inactive: -0.001 | inactive: -0.018 | inactive: 0.002 | inactive: -0.003 | inactive: -0.003 | inactive: -0.021 | inactive: 0.001 | inactive: 0.074 | inactive: -0.046 | inactive: -0.015 | inactive: 0.006 | inactive: 0.032
C9orf16 (UniProt Q9BUW7) | inactive: 0.138 | inactive: -0.056 | inactive: 0.088 | inactive: -0.02 | inactive: -0.018 | inactive: -0.026 | inactive: 0.034 | – | – | – | – | – | inactive: 0.041 | inactive: 0.105 | inactive: -0.048 | inactive: 0.001 | inactive: -0.197 | inactive: -0.035 | – | inactive: -0.192
CALM2 (UniProt P0DP24) | inactive: -0.063 | inactive: 0.018 | inactive: -0.059 | inactive: -0.016 | inactive: 0.124 | inactive: 0.03 | inactive: -0.085 | inactive: 0.011 | inactive: 0.026 | inactive: -0.13 | inactive: -0.038 | inactive: -0.128 | inactive: 0.027 | inactive: -0.252 | inactive: 0.086 | inactive: 0.068 | inactive: 0.025 | inactive: -0.064 | inactive: -0.171 | inactive: 0.187

Fetched one by one from the list above, 2 records:
Target | log2 fold change (alvocidib) | log2 fold change (Tubastatin A) | log2 fold change [1] | log2 fold change (defactinib) | log2 fold change [2] | log2 fold change (encorafenib) | log2 fold change [3] | log2 fold change (alisertib) | log2 fold change [4] | log2 fold change (gefitinib) | log2 fold change (lapatinib) | log2 fold change (pictilisib) | log2 fold change (crizotinib) | log2 fold change [5] | log2 fold change (duvelisib) | log2 fold change (gandotinib) | log2 fold change (tozasertib) | log2 fold change (doramapimod) | log2 fold change (bafetinib) | log2 fold change [6]
CALM2 (UniProt P0DP24) | inactive: -0.063 | inactive: 0.018 | inactive: -0.059 | inactive: -0.016 | inactive: 0.124 | inactive: 0.03 | inactive: -0.085 | inactive: 0.011 | inactive: 0.026 | inactive: -0.13 | inactive: -0.038 | inactive: -0.128 | inactive: 0.027 | inactive: -0.252 | inactive: 0.086 | inactive: 0.068 | inactive: 0.025 | inactive: -0.064 | inactive: -0.171 | inactive: 0.187
CAPZA1 (UniProt P52907) | inactive: 0.021 | inactive: 0.047 | inactive: 0.024 | inactive: 0.003 | inactive: 0.033 | inactive: 0.006 | inactive: -0.001 | inactive: 0.01 | inactive: -0.001 | inactive: -0.018 | inactive: 0.002 | inactive: -0.003 | inactive: -0.003 | inactive: -0.021 | inactive: 0.001 | inactive: 0.074 | inactive: -0.046 | inactive: -0.015 | inactive: 0.006 | inactive: 0.032
